Results from the M2OR odorant receptor database.
This is a selection; strong and weak results do not stand in their true shares. Calls are pooled over several reports, among them a noisy single-well screen. This is one part of the list.

Chains of the proteins cited; added tags and fusions are not shown. A line that says so, or that is headed by a name, gives the form on record, which may keep a tag or linker.
OR7C1, as listed by the source: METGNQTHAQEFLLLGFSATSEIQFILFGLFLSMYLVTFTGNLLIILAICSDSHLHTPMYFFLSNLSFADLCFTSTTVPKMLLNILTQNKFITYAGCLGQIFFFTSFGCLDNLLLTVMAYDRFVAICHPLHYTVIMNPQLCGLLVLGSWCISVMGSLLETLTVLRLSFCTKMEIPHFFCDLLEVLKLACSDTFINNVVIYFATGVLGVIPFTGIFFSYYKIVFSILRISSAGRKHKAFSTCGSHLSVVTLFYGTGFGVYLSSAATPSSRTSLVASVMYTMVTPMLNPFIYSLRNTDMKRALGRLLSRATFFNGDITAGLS

Tests used:
Conditions in all cases: stereoisomer not certain
OR6V1 (Homo sapiens) = target: T1, OR6V1 (Homo sapiens) (UniProt Q8N148)
T1 sequence (whole entry): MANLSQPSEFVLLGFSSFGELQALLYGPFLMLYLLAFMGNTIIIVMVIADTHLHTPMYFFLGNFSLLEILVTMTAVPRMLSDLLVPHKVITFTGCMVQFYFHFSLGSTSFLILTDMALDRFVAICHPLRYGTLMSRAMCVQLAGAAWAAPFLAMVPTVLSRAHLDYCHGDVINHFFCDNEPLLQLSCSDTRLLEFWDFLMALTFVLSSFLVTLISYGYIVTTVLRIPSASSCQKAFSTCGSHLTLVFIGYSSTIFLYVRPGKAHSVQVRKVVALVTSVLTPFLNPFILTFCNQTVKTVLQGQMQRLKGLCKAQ
Method in brief: (§1)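 Values were gathered from published papers (main text and supplementary material), with extra details requested from the original authors when needed, and checked for typos and inconsistencies. Each receptor–molecule pair is called responsive (active) if the original authors judged the measured signal statistically different from baseline, and non-responsive (inactive) otherwise. Assay methods varied by source, often transient mammalian cell-line luciferase assays. Recorded details include cell line, G-protein, co-transfected protein and tags.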

OR6X1 (Homo sapiens) = target: T2, OR6X1 (Homo sapiens) (UniProt Q8NH79)
T2 sequence (whole entry): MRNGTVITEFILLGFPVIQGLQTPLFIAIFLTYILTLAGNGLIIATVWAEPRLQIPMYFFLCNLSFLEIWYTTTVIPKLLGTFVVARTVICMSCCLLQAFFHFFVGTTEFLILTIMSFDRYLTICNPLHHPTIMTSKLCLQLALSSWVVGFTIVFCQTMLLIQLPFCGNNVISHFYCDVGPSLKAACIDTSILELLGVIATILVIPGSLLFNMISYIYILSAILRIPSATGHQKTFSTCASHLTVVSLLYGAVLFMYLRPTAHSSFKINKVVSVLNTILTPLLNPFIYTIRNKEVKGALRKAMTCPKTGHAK
Method in brief: as §1

OR6Y1 = system: T3, OR6Y1
T3 sequence (whole entry): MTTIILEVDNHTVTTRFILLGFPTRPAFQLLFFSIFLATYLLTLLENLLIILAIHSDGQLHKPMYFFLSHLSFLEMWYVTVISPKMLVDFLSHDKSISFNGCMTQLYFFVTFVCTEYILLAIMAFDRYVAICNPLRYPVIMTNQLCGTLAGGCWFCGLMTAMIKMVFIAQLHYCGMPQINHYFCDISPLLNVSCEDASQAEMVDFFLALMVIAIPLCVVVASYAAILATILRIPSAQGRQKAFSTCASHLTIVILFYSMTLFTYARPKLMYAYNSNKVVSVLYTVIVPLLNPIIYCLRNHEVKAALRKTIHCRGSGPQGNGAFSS
Method in brief: as §1

OR7A10 (Homo sapiens) = target: T4, OR7A10 (Homo sapiens) (UniProt O76100)
T4 sequence (whole entry): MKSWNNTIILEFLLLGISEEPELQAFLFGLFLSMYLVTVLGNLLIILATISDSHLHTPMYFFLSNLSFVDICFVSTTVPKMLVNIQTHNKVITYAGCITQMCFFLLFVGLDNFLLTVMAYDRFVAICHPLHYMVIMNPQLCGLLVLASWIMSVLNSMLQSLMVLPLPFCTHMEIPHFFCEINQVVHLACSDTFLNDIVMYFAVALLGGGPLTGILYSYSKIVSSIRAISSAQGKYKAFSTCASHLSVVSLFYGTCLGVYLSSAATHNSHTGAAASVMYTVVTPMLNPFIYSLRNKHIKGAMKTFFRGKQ
Method in brief: as §1

OR7A17 (Homo sapiens) = target: T5, OR7A17 (Homo sapiens) (UniProt O14581)
T5 sequence (whole entry): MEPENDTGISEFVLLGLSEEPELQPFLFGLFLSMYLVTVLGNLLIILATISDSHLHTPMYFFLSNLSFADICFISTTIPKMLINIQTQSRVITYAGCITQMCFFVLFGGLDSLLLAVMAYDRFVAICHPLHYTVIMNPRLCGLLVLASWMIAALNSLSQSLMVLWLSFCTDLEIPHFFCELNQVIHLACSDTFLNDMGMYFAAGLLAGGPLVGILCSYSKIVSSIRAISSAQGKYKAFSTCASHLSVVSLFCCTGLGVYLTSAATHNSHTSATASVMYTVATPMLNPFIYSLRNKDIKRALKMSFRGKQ
Method in brief: as §1

OR7A5 (Homo sapiens) = target: T6, OR7A5 (Homo sapiens) (UniProt Q15622)
T6 sequence (whole entry): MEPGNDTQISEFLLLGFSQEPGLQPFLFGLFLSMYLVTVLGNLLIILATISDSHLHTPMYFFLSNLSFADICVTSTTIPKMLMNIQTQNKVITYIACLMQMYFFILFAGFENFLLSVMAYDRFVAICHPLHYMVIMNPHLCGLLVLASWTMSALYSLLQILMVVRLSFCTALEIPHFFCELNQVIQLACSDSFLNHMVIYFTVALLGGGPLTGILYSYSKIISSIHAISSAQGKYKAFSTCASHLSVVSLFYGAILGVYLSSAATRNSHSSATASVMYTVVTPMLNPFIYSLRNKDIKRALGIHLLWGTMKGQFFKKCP
Method in brief: as §1

OR7C1 [1] = system: T7, OR7C1
T7 sequence (whole entry): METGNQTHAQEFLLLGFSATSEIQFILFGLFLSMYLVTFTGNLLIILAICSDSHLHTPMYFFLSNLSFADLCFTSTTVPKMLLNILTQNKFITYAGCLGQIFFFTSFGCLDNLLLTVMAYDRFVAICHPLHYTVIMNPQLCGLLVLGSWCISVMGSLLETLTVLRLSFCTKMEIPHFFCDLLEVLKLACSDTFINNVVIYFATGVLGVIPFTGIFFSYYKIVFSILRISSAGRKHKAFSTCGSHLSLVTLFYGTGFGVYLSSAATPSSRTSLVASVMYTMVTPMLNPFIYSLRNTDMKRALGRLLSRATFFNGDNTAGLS
Method in brief: as §1

OR7C1 (Homo sapiens) = OR7C1 (Homo sapiens) (UniProt O76099)
Method in brief: as §1

OR7C1 [2] = system: OR7C1; remark: listed apart in the source
Method in brief: as §1

OR6Y1 (Homo sapiens) = OR6Y1 (Homo sapiens) (UniProt Q8NGX8)
Method in brief: as §1

| SMILES | odorant receptor agonist call (OR6V1 (Homo sapiens)) | odorant receptor agonist call (OR6X1 (Homo sapiens)) | odorant receptor agonist call (OR6Y1) | odorant receptor agonist call (OR7A10 (Homo sapiens)) | odorant receptor agonist call (OR7A17 (Homo sapiens)) | odorant receptor agonist call (OR7A5 (Homo sapiens)) | odorant receptor agonist call (OR7C1 [1]) | odorant receptor agonist call (OR7C1 (Homo sapiens)) | odorant receptor agonist call (OR7C1 [2]) | odorant receptor agonist call (OR6Y1 (Homo sapiens)) |
| --- | --- | --- | --- | --- | --- | --- | --- | --- | --- | --- |
| CC(C)CC(=O)O | inactive | inactive | inactive | inactive | inactive | inactive | inactive | – | – | – |
| CCCCCCCCOC(C)=O | inactive | inactive | inactive | inactive | inactive | inactive | inactive | – | – | – |
| CC12C=CCC1C1CCC3=CC(=O)CCC3(C)C1CC2 (centres undefined) | inactive | inactive | inactive | inactive | inactive | inactive | active | inactive | active | – |
| O=CCc1ccccc1 | active | active | inactive | inactive | inactive | inactive | inactive | – | – | – |
| CCCCCCCCCC=O | inactive | inactive | inactive | inactive | inactive | inactive | inactive | – | – | – |
| C=C(C)C1CCC2=CC(=O)CC(C)C2(C)C1 (centres undefined) | active | inactive | – | – | – | – | – | – | – | – |
| COc1cc(C=O)ccc1O | inactive | inactive | inactive | inactive | inactive | inactive | inactive | – | – | – |
| CC(C)(O)CCCC1=CCC(C=O)CC1 (centres undefined) | inactive | inactive | – | – | – | – | – | – | – | – |
| CCCCCCOC(=O)CCC | inactive | inactive | inactive | inactive | inactive | inactive | inactive | – | – | – |
| CC12C=CCC1C1CCC3CC(=O)CCC3(C)C1CC2 (centres undefined) | inactive | inactive | inactive | inactive | inactive | inactive | active | inactive | – | inactive |
| CC(=O)OCC=C(C)CCC=C(C)C | inactive | active | inactive | inactive | inactive | inactive | inactive | – | – | – |
| COc1cc(C)ccc1O | inactive | inactive | inactive | inactive | inactive | inactive | inactive | – | – | – |
| c1cnccn1 | inactive | inactive | inactive | inactive | inactive | inactive | inactive | – | – | – |
| CCCCCCCC=CC=O | inactive | inactive | active | inactive | inactive | inactive | inactive | – | – | – |
| C=CCSCC=C | inactive | inactive | inactive | inactive | inactive | inactive | inactive | – | – | – |
| CCCCCCCCCCC=O | inactive | inactive | inactive | inactive | inactive | inactive | inactive | – | – | – |
| CCCCCCCOC(C)=O | inactive | inactive | inactive | inactive | inactive | inactive | inactive | – | – | – |
| C=CCc1ccc(OC)c(OC)c1 | inactive | inactive | inactive | inactive | inactive | inactive | inactive | – | – | – |
| CCCCCCCC=O | inactive | inactive | inactive | inactive | inactive | inactive | inactive | – | – | – |
| CC1=CCC(C(C)(C)O)CC1 (centres undefined) | inactive | active | inactive | inactive | inactive | inactive | inactive | – | – | – |
| c1ccc(Oc2ccccc2)cc1 | inactive | inactive | inactive | inactive | inactive | inactive | inactive | – | – | – |
| CC(C)=CCCC(C)=CC=O | inactive | inactive | inactive | inactive | inactive | inactive | inactive | – | – | – |
| O=C1CCCCCCCCCCCCCCO1 | inactive | inactive | inactive | inactive | inactive | inactive | inactive | – | – | – |
| CCCCCOC(C)=O | inactive | inactive | inactive | inactive | inactive | inactive | inactive | – | – | – |
| CC1CCC(C(C)C)C(O)C1 (centres undefined) | inactive | inactive | inactive | inactive | inactive | active | inactive | – | – | – |

One compound at a time (already shown). Values in the order: odorant receptor agonist call (OR6V1 (Homo sapiens)) | odorant receptor agonist call (OR6X1 (Homo sapiens)) | odorant receptor agonist call (OR6Y1) | odorant receptor agonist call (OR7A10 (Homo sapiens)) | odorant receptor agonist call (OR7A17 (Homo sapiens)) | odorant receptor agonist call (OR7A5 (Homo sapiens)) | odorant receptor agonist call (OR7C1 [1]) | odorant receptor agonist call (OR7C1 (Homo sapiens)) | odorant receptor agonist call (OR7C1 [2]) | odorant receptor agonist call (OR6Y1 (Homo sapiens))
`CC(C)(O)CCCC1=CCC(C=O)CC1` (centres undefined) is entered as inactive | inactive | – | – | – | – | – | – | – | –
`CCCCCCOC(=O)CCC` is entered as inactive | inactive | inactive | inactive | inactive | inactive | inactive | – | – | –
